Structures are written as SMILES. Not every entry of the source has a single result; some have several. They are shown here; other results are not. The source may hold further records. The records of an entry differ for a reason that is not stated; some may be repeats, others may stem from another dose, organism or construct than stated.

By UniProt entry, the sequences of proteins in these tests, tags left out. Residues count along the entry.
UniProt P28482, 2-360 limits assumed: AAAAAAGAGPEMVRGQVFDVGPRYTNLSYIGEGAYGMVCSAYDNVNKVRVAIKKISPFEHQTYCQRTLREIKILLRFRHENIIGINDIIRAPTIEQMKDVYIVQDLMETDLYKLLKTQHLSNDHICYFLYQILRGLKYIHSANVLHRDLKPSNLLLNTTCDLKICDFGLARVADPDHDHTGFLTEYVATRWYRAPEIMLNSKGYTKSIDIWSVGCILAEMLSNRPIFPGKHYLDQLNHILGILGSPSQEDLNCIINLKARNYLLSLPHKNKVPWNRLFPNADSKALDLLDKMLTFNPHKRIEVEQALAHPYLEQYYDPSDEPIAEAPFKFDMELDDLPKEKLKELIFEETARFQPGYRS
UniProt Q02750, whole entry: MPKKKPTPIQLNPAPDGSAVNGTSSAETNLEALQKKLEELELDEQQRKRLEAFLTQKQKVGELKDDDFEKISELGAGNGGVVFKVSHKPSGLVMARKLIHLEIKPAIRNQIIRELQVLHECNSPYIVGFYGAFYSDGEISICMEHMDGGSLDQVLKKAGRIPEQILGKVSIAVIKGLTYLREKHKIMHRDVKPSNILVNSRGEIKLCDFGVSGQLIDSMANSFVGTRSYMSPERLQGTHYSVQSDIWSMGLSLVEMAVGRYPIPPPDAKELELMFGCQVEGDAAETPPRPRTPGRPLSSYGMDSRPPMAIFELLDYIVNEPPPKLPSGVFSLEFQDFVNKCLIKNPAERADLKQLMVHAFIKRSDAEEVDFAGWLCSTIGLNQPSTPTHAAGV

The target of this test is Recombinant human MEK 1 (MAPKK) / recombinant human ERK2 (MAPK) (Mek-Erk) (Homo sapiens, UniProt P28482+Q02750). The test is described as follows: Mitogen Activated Protein Kinase (MAPK) assay, two component coupled Mek-Erk test. In kind it is biochemical. To be noted: read-out: Mek-Erk µM.

As for `CCOc1cc2ncc(C#N)c(Nc3ccc4c(c3)NCC4)c2cc1OCC`, the IC50 is 2 µM, < 1 µM, 800 nM.

The record behind these values is EP1117659B1, “SUBSTITUTED 3-CYANOQUINOLINES AS PROTEIN TYROSINE KINASES INHIBITORS” (Wyeth Holdings Corporation, priority 1998, dated 2000).
